log2 fold change data for 30 targets are collected here from the supplement of paper PMC12819154, “High-throughput peptide-centric local stability assay extends protein–ligand identification to membrane proteins, tissues and bacteria” (Nature Structural & Molecular Biology, 2025).

By UniProt entry, the sequences of proteins in these tests, tags left out. Where a name states a change or a piece, a line headed by the entry shows the natural chain unless it says otherwise.
UniProt P56383: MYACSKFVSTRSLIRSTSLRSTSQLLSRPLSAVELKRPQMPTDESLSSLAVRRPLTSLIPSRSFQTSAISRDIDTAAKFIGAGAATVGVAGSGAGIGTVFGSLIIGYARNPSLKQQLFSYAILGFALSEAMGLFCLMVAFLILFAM
UniProt P58802: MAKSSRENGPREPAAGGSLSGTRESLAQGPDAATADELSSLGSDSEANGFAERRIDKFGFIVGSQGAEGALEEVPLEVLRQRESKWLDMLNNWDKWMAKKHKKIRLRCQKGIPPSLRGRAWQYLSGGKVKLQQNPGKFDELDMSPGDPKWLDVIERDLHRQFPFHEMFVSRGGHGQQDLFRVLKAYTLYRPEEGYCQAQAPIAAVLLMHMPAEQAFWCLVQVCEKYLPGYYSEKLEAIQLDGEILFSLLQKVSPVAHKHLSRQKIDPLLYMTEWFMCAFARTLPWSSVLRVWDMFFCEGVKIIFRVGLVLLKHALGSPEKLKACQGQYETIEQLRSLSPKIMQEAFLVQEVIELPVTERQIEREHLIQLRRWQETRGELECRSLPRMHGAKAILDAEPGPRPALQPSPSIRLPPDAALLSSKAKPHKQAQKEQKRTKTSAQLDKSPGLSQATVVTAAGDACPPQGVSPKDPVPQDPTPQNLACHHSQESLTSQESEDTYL
UniProt P56391: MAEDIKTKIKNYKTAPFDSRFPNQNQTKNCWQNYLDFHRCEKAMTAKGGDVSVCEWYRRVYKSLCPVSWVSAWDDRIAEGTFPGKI
UniProt P57016: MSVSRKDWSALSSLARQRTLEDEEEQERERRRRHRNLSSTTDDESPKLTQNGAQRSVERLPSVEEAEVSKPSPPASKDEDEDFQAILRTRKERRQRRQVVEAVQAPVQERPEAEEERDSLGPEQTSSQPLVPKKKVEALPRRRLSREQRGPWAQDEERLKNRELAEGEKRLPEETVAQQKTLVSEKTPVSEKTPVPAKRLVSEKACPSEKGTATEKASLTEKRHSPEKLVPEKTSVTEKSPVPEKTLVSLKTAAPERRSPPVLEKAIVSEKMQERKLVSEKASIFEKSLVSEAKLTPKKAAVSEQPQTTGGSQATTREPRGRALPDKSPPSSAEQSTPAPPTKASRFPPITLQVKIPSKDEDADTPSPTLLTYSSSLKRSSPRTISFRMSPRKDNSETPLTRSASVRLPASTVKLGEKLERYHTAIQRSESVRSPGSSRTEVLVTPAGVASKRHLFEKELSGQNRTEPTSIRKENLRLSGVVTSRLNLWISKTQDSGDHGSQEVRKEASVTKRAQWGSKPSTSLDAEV
UniProt P62077: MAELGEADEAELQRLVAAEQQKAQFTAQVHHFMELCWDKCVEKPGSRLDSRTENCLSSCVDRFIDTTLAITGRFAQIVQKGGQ
UniProt P58269, whole entry: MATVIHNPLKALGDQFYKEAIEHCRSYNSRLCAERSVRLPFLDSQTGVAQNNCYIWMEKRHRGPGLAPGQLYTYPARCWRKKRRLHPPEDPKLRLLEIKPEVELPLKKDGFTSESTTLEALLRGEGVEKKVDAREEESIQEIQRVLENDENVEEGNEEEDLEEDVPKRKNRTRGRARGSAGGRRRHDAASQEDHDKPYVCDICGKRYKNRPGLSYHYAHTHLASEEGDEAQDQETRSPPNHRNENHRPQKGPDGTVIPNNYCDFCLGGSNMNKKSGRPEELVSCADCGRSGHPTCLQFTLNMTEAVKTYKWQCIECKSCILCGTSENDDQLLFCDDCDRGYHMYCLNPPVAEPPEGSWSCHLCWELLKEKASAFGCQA
UniProt P57746, whole entry: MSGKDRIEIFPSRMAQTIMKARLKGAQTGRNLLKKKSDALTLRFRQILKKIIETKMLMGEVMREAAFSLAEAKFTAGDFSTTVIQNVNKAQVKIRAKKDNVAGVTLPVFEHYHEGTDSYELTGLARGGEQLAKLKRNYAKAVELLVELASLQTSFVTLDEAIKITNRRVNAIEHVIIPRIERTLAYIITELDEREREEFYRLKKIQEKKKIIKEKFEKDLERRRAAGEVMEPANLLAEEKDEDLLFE
UniProt P56183: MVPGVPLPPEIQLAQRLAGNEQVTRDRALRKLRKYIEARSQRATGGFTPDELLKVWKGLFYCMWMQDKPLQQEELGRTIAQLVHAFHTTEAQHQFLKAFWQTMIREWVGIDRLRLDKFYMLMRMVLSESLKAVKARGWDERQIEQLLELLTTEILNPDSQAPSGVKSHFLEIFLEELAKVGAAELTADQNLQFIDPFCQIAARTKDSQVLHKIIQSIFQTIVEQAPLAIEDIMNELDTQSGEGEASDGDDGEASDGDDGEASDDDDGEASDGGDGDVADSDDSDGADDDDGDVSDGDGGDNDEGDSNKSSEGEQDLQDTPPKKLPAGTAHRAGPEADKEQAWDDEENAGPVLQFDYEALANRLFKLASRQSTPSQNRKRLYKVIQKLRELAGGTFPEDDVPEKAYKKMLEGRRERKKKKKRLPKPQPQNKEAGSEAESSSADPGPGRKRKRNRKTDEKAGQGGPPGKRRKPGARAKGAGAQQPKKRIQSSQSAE
UniProt P63054, whole entry: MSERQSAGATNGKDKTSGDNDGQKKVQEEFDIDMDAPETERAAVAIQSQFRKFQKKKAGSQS
UniProt P58468: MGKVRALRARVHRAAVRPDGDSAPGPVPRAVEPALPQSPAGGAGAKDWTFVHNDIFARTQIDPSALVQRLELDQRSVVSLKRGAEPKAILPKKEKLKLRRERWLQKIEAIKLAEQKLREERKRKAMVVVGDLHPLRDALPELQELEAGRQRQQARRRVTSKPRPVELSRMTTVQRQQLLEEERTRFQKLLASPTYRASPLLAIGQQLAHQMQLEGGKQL
UniProt P61211: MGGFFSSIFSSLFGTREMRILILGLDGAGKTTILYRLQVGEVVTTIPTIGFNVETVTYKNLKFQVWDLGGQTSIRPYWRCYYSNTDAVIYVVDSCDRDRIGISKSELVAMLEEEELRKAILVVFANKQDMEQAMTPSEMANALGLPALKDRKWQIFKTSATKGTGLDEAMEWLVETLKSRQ
UniProt P62075: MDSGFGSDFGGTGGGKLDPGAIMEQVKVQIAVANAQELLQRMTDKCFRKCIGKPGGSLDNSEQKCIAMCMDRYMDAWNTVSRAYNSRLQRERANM
UniProt P54729: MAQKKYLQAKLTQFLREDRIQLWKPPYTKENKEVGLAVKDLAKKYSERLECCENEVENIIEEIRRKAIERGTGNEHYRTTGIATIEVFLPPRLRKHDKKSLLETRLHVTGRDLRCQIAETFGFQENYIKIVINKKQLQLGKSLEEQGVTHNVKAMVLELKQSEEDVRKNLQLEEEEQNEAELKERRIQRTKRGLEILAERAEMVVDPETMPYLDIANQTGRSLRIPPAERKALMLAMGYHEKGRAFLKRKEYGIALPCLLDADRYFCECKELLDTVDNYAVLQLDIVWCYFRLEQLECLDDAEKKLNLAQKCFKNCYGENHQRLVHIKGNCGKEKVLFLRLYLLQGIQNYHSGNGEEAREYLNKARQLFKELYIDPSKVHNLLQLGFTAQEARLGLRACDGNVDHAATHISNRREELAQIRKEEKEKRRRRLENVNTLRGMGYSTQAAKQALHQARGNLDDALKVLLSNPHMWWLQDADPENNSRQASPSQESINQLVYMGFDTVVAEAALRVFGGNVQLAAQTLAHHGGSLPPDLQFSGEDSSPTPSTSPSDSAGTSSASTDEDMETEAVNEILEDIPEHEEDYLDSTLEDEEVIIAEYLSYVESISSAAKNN
UniProt P58404: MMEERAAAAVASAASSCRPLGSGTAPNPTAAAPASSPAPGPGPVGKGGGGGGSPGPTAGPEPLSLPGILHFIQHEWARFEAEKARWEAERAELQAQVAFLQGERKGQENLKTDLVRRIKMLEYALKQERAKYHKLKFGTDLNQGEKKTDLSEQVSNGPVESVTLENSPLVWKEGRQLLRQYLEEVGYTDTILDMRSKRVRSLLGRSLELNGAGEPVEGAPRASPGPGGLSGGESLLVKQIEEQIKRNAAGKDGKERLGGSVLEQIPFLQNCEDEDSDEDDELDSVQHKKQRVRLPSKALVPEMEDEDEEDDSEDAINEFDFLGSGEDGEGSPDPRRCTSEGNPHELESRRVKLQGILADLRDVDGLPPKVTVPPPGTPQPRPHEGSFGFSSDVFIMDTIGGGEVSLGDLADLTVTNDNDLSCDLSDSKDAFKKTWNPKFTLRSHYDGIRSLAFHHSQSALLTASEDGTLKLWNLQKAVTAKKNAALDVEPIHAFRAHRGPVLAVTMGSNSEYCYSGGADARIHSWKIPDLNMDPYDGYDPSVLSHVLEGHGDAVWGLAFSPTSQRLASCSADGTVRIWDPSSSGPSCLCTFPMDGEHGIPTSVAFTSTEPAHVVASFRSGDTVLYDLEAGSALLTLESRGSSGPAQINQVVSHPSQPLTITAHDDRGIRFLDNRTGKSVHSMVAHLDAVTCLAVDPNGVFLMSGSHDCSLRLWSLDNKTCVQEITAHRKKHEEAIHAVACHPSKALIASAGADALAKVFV
UniProt P58058: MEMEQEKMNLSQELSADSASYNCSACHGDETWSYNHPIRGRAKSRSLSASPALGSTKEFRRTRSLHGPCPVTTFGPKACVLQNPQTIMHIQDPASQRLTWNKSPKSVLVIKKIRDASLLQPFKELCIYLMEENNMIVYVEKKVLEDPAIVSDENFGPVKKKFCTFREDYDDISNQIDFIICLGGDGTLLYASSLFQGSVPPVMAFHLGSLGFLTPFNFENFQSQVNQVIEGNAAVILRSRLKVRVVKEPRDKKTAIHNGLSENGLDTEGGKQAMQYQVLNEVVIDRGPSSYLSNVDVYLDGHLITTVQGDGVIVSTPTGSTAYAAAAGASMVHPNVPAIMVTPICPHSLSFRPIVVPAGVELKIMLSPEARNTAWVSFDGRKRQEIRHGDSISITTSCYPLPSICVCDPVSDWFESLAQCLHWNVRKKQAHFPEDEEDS
UniProt P58710: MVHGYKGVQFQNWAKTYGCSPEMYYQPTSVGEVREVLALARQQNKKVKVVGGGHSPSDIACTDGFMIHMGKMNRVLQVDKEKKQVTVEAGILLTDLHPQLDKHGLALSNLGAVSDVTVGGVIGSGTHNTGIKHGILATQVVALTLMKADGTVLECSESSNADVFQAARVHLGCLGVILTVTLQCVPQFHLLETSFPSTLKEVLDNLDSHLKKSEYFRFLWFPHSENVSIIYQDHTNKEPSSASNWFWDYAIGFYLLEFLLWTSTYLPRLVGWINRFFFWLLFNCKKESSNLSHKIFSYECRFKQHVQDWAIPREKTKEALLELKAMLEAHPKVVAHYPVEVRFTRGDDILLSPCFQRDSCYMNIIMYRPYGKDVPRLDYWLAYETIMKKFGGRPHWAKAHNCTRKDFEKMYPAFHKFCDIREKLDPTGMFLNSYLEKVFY
UniProt P56656: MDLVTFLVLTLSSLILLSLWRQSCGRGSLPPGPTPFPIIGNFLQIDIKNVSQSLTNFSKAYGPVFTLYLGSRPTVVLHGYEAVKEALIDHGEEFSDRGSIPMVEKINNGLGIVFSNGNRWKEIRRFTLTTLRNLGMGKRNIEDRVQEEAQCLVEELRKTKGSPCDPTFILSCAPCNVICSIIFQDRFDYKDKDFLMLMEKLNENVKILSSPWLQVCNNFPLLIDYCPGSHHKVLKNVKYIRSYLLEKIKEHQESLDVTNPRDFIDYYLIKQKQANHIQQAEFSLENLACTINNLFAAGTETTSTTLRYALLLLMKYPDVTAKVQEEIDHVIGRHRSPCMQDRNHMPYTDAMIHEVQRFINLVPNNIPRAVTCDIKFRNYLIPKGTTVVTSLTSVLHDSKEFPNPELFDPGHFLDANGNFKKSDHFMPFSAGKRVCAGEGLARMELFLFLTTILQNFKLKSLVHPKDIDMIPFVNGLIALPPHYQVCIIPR
UniProt P62932: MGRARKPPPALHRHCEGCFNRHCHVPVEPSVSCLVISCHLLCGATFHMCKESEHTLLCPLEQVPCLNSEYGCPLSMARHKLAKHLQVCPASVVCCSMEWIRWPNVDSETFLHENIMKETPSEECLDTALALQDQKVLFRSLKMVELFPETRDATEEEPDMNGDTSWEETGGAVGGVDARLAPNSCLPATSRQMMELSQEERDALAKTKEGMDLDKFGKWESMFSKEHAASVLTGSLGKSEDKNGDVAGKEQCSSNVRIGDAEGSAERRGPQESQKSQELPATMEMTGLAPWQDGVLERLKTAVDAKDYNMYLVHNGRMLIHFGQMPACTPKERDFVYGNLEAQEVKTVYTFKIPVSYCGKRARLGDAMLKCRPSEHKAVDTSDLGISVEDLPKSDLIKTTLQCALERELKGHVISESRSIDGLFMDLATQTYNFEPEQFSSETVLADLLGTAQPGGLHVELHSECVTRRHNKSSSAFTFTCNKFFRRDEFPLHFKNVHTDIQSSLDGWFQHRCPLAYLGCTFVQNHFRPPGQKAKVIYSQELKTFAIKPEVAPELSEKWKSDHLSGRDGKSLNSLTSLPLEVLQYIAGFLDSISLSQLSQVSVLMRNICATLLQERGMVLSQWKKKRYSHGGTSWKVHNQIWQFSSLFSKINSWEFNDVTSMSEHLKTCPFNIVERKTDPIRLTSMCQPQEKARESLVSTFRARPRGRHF
UniProt P56393: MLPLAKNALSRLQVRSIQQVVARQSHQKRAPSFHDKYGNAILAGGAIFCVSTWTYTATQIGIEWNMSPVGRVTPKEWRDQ

The list shows a part of the results. Small differences around the control level are noise.

Compound in the assay: CN[C@@H]1C[C@H]2O[C@@](C)([C@@H]1OC)n1c3ccccc3c3c4c(c5c6ccccc6n2c5c31)C(=O)NC4 [staurosporine]
Put plainly: log2 fold change of tryptic peptide abundance, ligand vs vehicle (limited proteolysis) (log2 ratio); higher = more trypsin-susceptible (destabilized). To be noted: ligand concentration: 20 uM; sample: mouse liver crude lysate; replicate design: treated separately.
Turning to “UniProt P56383 (peptide sequence: STSQLLSRPLSAVELK, peptide start residue: 21)”, the log2 fold change amounted to 0.165. Take “UniProt P55065 (peptide sequence: VTSAALDLVK, peptide start residue: 26)”: the log2 fold change was -0.225. The same measure for “UniProt P58462 (peptide sequence: HLNSEHALDDR, peptide start residue: 354)”: -1.16. Regarding “UniProt P58802 (peptide sequence: LPPDAALLSSK, peptide start residue: 412)”, the log2 fold change is -0.194.

For the target “UniProt P56391 (peptide sequence: NCWQNYLDFHRCEKAMTAK, peptide start residue: 29)”, the log2 fold change was -0.444. The same measure for “UniProt P55284 (peptide sequence: DTFTIETDPKR, peptide start residue: 302)”: -0.896; for “UniProt P57016 (peptide sequence: KAAVSEQPQTTGGSQATTREPR, peptide start residue: 299)”: -0.406; for “UniProt P62077 (peptide sequence: LVAAEQQK, peptide start residue: 15)”: -0.0846.

On to “UniProt P57080 (peptide sequence: HITEEELCVLESCLHR, peptide start residue: 540)”, for which the log2 fold change is -0.355. Next, “UniProt P58281 (peptide sequence: EVLEDFAEDGEKKVK, peptide start residue: 912)”: -0.183. On to “UniProt P58269 (peptide sequence: LLEIKPEVELPLKK, peptide start residue: 95)”, for which the log2 fold change was -0.0212.

For “UniProt P57746 (peptide sequence: VNAIEHVIIPR, peptide start residue: 169)”, the log2 fold change came out at 0.587.

Take “UniProt P56183 (peptide sequence: AFWQTMIR, peptide start residue: 98)”: the log2 fold change turned out to be 0.34. As to “UniProt P63054 (peptide sequence: AAVAIQSQFR, peptide start residue: 42)”, the log2 fold change is -0.153. As to “UniProt P58468 (peptide sequence: VTSKPRPVELSR, peptide start residue: 158)”, the log2 fold change was 0.107. The same measure for “UniProt P61211 (peptide sequence: IGISKSELVAMLEEEELRK, peptide start residue: 100)”: -0.248. Next, “UniProt P62075 (peptide sequence: LDPGAIMEQVK, peptide start residue: 17)”: 0.0618.

Regarding “UniProt P62137 (peptide sequence: YGQFSGLNPGGR, peptide start residue: 306)”, the log2 fold change was determined as 0.134. Next, “UniProt P54729 (peptide sequence: IQLWKPPYTKENK, peptide start residue: 20)”: -0.381; “UniProt P63139 (peptide sequence: ESFREQDIYLPIANVAR, peptide start residue: 50)”: 0.0691. Next, “UniProt P56212 (peptide sequence: YPHLGQKPGGSDFLR, peptide start residue: 36)”: 0.0705. Turning to “UniProt P58404 (peptide sequence: LKFGTDLNQGEK, peptide start residue: 135)”, the log2 fold change is -0.489.

With “UniProt P58058 (peptide sequence: SLHGPCPVTTFGPK, peptide start residue: 64)”, the log2 fold change was found to be 0.159. The same measure for “UniProt P58710 (peptide sequence: AMLEAHPK, peptide start residue: 325)”: -0.31; for “UniProt P58660 (peptide sequence: AQQLLEVQEK, peptide start residue: 760)”: -0.125; for “UniProt P56656 (peptide sequence: VQEEAQCLVEELRK, peptide start residue: 145)”: -0.236. For “UniProt P62932 (peptide sequence: KRYSHGGTSWK, peptide start residue: 626)”, the log2 fold change was -0.0248. Next, “UniProt P59114 (peptide sequence: DSVEGICSK, peptide start residue: 354)”: -0.354; “UniProt P56393 (peptide sequence: RAPSFHDK, peptide start residue: 29)”: 0.364; “UniProt P54775 (peptide sequence: GVLMYGPPGCGKTMLAK, peptide start residue: 201)”: -0.304.
